Patent US9351978B2, “Neurogenesis screening method and uses thereof” (Mead Johnson Nutrition Company, priority 2012, dated 2016)
At least one structure is not confirmed: it was looked up by name or label, or the drawing left a doubt.

Columns and labels:
[1] = system: hNSCs; test: neurogenesis of hNSCs, morphological changes under inverted fluorescent microscopy; assay type: cell-based, human; conditions: 20 μM; 72 hours
Description: Briefly, hNSCs were purchased from Millipore, Bellerica, Mass., U.S.A., with genetic modification to constitutively express green fluorescent protein (“GFP”). The hNSCs were cultured on laminin coated plates as recommended by the manufacturer. Both laminin and DEME/F12 were obtained from Millipore. Laminin was diluted with DMEM/F12 to 20 μg/mL. 10 ml of diluted laminin solution was added to 10 cm tissue culture dish. Then the culture dish was incubated in a 37° C., 5% CO2 incubator overnight. Just before use, the laminin solution was aspirated and rinsed once with sterile DPBS solution. hNSCs were cultured in the ReNcell NSC maintenance medium (Millipore) supplied with 20 ng/mL bFGF and 20 ng/mL EGF in a 37° C., 5% CO2 incubator. Medium was exchanged with fresh medium containing bFGF and EGF every other day thereafter. The cells reached 80% confluence 2 to 3 days after this step.
After hNSCs reach 80% confluence, hNSCs were ready for the differentiation experiment. Before seeding, a 96-well plate was freshly coated with 20 μg/mL laminin solution followed by a brief DPBS rinse as described above. Culture medium was removed carefully and hNSCs were dissociated within 3 ml Accutase (Millipore) in a 37° C., 5% CO2 incubator for 3 minutes. Then 5 ml of ReNcell NSC maintenance medium (Millipore) supplied with 20 ng/mL bFGF and 20 ng/mL EGF were added. […]

[2] = system: hADSCs; test: neurogenesis of hADSCs, neuronal morphology under phase contrast microscopy; assay type: cell-based, human
Description: hADSCs were purchased from Invitrogen, also known as Life Technologies, of Carlsbad, Calif., U.S.A., and were cultured as near confluent monolayers in 100 mm culture plates within a maintenance media consisting of Complete MesenPro RS medium with growth supplement and L-glutamine obtained from Invitrogen®. The process of culturing, passage, and seeding the hADSCs is described below.
The subculture of hADSCs was performed when cell culture reached confluence. […]

CC/C=C\C/C=C\C/C=C\C/C=C\C/C=C\C/C=C\CCC(=O)O [DHA, docosahexaenoic acid, reference compound]
effects on neurogenesis of hNSCs [1]: good effects on neurogenesis | change of hADSCs into neuronal cell morphology ([2]; 10 μM, cytoplasm shrank and neurites began to protrude): a few of the hADSCs changed dramatically from their putative morphology into neuronal cell morphology | neuronal morphology of hADSCs compared to the negative control ([2]; 100 μM, positive control, FIG. 2C): enhanced neuronal morphology of hADSCs
